Our source for the log2 fold change values is the supplement of paper PMC12819154, “High-throughput peptide-centric local stability assay extends protein–ligand identification to membrane proteins, tissues and bacteria” (Nature Structural & Molecular Biology, 2025).

Amino acid sequences for entries named in this document (tags omitted). A change or cut given only in a name is not applied to a line headed by its entry.
UniProt Q6PFW1: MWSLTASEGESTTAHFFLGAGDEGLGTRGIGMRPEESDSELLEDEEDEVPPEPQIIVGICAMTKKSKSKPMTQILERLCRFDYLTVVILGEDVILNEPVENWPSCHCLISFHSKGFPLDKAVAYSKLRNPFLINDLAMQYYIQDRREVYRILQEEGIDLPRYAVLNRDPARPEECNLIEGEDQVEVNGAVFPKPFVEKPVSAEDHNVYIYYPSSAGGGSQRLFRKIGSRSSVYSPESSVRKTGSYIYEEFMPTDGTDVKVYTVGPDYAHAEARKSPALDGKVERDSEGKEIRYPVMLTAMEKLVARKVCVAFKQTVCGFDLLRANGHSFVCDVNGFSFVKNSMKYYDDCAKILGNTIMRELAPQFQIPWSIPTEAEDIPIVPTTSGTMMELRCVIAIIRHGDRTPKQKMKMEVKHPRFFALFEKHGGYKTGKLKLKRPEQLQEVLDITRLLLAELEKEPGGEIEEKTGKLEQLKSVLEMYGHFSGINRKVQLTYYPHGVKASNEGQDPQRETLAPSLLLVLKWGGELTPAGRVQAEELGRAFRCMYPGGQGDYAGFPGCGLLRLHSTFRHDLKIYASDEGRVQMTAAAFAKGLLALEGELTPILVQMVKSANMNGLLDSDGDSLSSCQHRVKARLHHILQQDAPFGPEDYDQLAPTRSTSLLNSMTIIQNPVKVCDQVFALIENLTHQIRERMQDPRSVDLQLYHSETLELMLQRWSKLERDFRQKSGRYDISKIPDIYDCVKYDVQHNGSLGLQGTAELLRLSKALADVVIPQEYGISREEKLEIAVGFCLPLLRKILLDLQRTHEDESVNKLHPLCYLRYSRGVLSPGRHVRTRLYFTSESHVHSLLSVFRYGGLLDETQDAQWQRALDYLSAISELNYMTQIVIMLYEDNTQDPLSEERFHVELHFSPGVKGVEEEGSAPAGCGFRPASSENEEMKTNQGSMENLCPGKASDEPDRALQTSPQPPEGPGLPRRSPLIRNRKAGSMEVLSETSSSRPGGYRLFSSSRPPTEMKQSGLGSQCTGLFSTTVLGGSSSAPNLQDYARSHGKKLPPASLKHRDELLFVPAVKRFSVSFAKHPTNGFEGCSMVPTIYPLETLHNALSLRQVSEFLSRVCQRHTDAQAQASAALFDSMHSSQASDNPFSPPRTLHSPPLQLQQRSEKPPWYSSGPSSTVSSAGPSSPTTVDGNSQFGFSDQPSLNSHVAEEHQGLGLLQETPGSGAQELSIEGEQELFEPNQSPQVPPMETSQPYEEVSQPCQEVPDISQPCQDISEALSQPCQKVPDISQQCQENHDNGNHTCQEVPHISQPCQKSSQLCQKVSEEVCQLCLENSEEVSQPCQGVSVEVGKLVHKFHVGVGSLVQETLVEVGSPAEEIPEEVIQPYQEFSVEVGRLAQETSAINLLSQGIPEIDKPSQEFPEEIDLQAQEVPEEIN
UniProt Q66K64, whole entry: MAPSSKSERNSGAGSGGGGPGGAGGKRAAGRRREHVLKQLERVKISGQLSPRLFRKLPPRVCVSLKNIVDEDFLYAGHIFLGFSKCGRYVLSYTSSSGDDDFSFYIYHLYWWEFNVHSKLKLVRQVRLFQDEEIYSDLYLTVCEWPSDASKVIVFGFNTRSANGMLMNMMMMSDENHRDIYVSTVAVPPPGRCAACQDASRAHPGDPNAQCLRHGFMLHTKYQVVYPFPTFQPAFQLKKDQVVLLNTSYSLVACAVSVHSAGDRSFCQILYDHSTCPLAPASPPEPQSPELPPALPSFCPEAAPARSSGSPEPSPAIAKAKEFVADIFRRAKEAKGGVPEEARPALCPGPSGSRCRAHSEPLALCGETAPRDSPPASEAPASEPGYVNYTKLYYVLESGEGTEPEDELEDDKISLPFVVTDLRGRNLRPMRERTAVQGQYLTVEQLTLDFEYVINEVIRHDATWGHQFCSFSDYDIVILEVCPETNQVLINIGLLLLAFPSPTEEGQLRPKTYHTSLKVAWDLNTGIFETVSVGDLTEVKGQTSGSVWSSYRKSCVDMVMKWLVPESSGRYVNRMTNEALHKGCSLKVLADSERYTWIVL
UniProt Q68DH5: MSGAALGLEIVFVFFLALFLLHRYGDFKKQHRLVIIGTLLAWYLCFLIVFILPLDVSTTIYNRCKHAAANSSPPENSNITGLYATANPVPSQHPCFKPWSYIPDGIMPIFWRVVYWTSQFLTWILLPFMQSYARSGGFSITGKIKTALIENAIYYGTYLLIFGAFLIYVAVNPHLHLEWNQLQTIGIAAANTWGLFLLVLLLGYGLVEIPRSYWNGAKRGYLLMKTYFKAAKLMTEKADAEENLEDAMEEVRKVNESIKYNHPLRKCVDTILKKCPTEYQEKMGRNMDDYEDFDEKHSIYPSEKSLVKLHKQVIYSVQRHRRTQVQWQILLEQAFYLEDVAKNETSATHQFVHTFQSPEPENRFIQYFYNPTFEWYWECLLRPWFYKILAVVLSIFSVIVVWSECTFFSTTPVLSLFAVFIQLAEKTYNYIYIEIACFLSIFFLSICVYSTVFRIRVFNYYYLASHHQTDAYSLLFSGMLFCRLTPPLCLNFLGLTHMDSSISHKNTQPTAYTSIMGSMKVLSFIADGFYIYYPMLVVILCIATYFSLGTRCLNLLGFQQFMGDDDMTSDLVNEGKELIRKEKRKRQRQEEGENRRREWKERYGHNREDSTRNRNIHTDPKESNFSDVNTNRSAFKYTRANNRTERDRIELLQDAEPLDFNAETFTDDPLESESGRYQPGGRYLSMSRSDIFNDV
UniProt Q5W0Q7: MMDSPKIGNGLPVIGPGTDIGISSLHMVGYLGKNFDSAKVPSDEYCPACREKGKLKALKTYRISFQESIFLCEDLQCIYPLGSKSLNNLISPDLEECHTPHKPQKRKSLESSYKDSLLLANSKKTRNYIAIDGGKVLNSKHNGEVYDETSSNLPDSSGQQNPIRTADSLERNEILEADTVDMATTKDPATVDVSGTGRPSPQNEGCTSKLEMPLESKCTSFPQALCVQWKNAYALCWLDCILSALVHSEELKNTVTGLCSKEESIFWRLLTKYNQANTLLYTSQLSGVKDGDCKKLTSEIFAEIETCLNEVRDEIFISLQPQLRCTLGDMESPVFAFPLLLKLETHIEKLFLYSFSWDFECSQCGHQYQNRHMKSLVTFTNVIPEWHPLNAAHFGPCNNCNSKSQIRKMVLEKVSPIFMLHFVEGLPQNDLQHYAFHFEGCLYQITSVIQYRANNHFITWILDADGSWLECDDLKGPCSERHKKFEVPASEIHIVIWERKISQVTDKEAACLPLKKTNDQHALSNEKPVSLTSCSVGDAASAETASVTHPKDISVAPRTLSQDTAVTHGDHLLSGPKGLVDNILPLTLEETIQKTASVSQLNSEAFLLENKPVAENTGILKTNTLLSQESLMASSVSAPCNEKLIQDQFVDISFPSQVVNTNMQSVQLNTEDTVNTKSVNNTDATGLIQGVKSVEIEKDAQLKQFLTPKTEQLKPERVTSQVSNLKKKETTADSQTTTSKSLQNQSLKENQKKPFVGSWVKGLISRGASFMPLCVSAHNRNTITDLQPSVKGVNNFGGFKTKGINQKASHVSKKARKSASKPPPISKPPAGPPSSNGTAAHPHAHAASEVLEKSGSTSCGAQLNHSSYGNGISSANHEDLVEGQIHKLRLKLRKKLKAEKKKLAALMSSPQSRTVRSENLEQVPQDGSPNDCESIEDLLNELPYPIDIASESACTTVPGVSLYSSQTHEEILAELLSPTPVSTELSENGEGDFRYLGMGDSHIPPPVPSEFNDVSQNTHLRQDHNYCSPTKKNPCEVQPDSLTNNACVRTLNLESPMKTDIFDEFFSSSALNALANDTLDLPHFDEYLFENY
UniProt Q6PDB4: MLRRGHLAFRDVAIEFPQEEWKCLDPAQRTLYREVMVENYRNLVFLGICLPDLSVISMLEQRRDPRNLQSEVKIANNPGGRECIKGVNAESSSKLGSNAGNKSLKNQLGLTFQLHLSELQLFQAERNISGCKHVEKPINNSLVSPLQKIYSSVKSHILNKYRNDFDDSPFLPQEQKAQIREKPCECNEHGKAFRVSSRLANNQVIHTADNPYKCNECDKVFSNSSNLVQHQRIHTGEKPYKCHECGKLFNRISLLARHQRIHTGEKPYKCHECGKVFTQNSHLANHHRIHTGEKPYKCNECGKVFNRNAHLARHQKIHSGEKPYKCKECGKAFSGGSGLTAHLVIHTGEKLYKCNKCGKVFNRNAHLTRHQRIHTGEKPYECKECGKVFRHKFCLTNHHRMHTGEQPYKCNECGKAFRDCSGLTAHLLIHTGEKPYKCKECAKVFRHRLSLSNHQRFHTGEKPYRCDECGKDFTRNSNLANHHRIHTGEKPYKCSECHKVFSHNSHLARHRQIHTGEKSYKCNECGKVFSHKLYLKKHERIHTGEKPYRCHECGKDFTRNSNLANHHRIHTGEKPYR
UniProt Q6QNY1: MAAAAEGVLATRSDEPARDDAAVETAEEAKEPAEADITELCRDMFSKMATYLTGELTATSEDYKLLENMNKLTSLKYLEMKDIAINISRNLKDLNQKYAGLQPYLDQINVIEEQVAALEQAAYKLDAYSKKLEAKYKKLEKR
UniProt Q6IN85: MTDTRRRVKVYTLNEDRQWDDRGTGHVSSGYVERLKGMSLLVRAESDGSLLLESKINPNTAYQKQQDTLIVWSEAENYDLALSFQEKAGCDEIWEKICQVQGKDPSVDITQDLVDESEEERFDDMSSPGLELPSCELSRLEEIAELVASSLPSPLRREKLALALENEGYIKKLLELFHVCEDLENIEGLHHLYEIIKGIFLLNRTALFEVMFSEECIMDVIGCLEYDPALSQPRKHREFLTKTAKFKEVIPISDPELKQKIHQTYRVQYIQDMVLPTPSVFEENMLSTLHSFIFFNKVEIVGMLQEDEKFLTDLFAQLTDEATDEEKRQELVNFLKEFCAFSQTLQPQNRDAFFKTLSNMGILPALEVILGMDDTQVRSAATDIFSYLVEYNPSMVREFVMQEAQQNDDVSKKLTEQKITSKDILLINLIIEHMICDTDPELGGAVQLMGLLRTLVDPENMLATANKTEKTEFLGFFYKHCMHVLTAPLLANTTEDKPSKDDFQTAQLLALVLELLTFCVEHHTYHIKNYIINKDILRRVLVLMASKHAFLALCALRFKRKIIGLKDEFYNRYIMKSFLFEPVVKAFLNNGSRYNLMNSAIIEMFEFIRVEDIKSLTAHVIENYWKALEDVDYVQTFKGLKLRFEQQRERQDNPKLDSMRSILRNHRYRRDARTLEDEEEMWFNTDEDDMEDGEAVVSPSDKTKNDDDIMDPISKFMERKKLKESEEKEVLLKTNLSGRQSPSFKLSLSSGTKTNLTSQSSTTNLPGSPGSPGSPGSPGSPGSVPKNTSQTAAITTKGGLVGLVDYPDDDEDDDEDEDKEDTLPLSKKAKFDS
UniProt Q6P1L5: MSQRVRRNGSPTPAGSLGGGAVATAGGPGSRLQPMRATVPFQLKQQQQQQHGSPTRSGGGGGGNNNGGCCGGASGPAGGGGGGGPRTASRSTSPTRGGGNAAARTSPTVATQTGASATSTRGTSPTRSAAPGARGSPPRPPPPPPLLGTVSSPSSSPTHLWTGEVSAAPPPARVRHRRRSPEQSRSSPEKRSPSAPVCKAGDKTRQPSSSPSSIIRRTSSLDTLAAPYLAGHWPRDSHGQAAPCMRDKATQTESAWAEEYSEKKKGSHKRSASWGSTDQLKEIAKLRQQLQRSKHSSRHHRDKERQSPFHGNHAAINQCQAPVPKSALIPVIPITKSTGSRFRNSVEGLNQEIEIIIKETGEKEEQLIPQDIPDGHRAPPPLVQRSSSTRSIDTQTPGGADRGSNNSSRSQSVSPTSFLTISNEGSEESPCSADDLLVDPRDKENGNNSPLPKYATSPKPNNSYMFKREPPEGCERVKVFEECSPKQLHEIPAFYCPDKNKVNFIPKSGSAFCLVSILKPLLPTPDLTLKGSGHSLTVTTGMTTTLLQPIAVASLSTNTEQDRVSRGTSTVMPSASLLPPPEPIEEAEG
UniProt Q6SPF0: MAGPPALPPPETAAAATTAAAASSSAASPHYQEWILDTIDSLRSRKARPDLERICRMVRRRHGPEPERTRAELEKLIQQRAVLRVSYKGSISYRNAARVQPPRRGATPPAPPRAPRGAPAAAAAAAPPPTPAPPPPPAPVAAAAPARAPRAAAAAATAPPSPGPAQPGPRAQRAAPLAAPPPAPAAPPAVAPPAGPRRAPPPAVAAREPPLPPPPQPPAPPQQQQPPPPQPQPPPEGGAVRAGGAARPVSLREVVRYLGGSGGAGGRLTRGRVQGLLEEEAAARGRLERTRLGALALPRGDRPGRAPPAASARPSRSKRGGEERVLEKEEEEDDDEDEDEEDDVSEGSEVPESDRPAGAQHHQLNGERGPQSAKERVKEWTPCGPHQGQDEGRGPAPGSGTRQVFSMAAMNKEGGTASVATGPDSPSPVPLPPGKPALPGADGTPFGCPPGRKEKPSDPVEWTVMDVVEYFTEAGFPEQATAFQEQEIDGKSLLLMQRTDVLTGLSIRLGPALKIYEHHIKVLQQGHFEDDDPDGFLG

The other results are listed elsewhere or left out. Small differences around the control level are noise.

Compound in the assay: CN[C@@H]1C[C@H]2O[C@@](C)([C@@H]1OC)n1c3ccccc3c3c4c(c5c6ccccc6n2c5c31)C(=O)NC4 [staurosporine]
Put plainly: log2 fold change of tryptic peptide abundance, ligand vs vehicle (limited proteolysis) (log2 ratio); higher = more trypsin-susceptible (destabilized). As to conditions: ligand concentration: 20 uM; sample: K562 cleared lysate; digestion: 4 min, 22 C (HT-PELSA RT4min, Orbitrap Astral).
“UniProt Q6PFW1 (peptide sequence: HRDELLFVPAVKR, peptide start residue: 1059)”: the log2 fold change was 0.45.
“DCAF15 (peptide sequence: AHSEPLALCGETAPR, peptide start residue: 357) (UniProt Q66K64)”: the log2 fold change came out at 0.281.
Under “LMBRD2 (peptide sequence: ESNFSDVNTNR, peptide start residue: 622) (UniProt Q68DH5)” stands 0.021.
With “UniProt Q5W0Q7 (peptide sequence: VTSQVSNLK, peptide start residue: 718)”, the log2 fold change was -0.142.
Under “UniProt Q6PDB4 (peptide sequence: CLDPAQR, peptide start residue: 24)” stands 0.00976.
For “BLOC1S2 (peptide sequence: DIAINISR, peptide start residue: 82) (UniProt Q6QNY1)” the value was -0.275; for “UniProt Q6IN85 (peptide sequence: LKGMSLLVR, peptide start residue: 35)”, 0.192.
Under “FAM117B (peptide sequence: DSHGQAAPCMR, peptide start residue: 236) (UniProt Q6P1L5)” stands -0.923.
Consider “SAMD1 (peptide sequence: VKEWTPCGPHQGQDEGR, peptide start residue: 377) (UniProt Q6SPF0)”, for which the log2 fold change was determined as 0.559.
